Further values from the same series stand in other lists.
Experiment: Assay (I): Determination of Solubility (96-well plate, pH 3.0-11.0, organic solvent 0-70% w/w, UV absorption at 280 nm)
Type: physicochemical
Conditions: Method 1 (evaporation)
Experimental: Assay (I): Determination of Solubility
96-Well Plate Preparation
96-well plates containing target peptide in a solid form were prepared in one of two ways:
Method 1 (evaporation): Addition of 100 μl stock solution of said peptide at a concentration of 4-6 mg/ml to each well of a 96-well half area plate (150 μl well size). Subsequently the solvent was evaporated by applying a vacuum until the solvent was completely removed.
Method 2 (precipitation): Addition of a certain volume of a stock solution of said peptide containing to each well of a 96-well half area plate followed by the addition of a certain volume of concentrated phosphoric acid to obtain a pH of 4.6 followed by addition of a certain volume of ethanol resulting in a final ethanol concentration of 20% v/v. Subsequently the plate was stored at 4° C. for 1 h and then centrifuged at 4,000 rpm for 20 min. Finally the supernatant was removed. The concentration of the stock solution was chosen in a way that the final amount of peptide after supernatant removal was >0.4 mg per well.
In both cases the stock solution was prepared by adding de-ionized water to a certain amount of powder of said peptide followed by a stepwise addition of small amounts of a concentrated sodium hydroxide solution until said peptide was completely in solution.
To determine solubility of a target peptide at different pH and organic solvent concentrations, two different buffer systems were used in independent experiments to cover the whole range from pH 3.0 to pH 11.0. Buffer system 1 covers pH 3.0-7.5 and buffer system 2 covers pH 7.5-11.0. For each buffer system 96 different solvent compositions were premixed in the following way: • 1. A low pH buffer (adjusted to either pH 3.0 or pH 7.5) and a high pH buffer (adjusted to either pH 7.5 or pH 11.0) were mixed at 8 different ratios to obtain values between pH 3.0 and pH 7.5 or pH 7.5 and pH 11.0, respectively. The total volume after mixing was 300 μl. • 2. 12 different amounts of organic solvent were then added to these buffers to obtain organic solvent (e.g. ethanol) concentrations between 0 and 70% w/w. • 3. Water was then added to obtain a total weight of 1.0 g of solvent in each well.
After preparing the 96 different solvent systems, 100 μl of each system was transferred to the 96-well plate containing the solid form of the target peptide (prepared as described in the section “96-well plate preparation”). The plate was then stored at a given temperature (between 5° C. and 70° C.) for a given time on a rotating shaker set to 400 rpm. At regular time intervals the plate was centrifuged (4,000 rpm for 10 min) and a 10 μl sample was taken from each well. The samples were then analysed by UV absorption at 280 nm for peptide quantification. Peptide concentration results are given as UV absorption at 280 nm of the sample subtracted UV absorption at 280 nm of a well comprising 10 μl water.
The buffers used were as follows: • Buffer system 1 (for the pH range from pH 3.0-7.5)
• Buffer system 2 (for the pH ranae from pH 7.5-11.0)
Solubility of liraglutide was determined using Assay (I) described herein. Liraglutide was prepared using Method 1 (evaporation) or Method 2 (precipitation) as described in subsection “96-well plate preparation”.

Peptide concentration after 24 h (DMF 31.8% w/w, pH 6.9, RT): 2.2 mg/mL
Peptide concentration after 5 min (DMF 31.8% w/w, pH 7.2, RT): 0.8 mg/mL
Peptide concentration after 180 min (DMF 31.8% w/w, pH 7.2, RT): 1.7 mg/mL
Peptide concentration after 24 h (DMF 31.8% w/w, pH 7.2, RT): >4.0 mg/mL
Peptide concentration after 5 min (DMF 31.8% w/w, pH 7.5, RT): 2.6 mg/mL
Peptide concentration after 180 min (DMF 31.8% w/w, pH 7.5, RT): >4.0 mg/mL
Peptide concentration after 5 min (DMF 31.8% w/w, pH 8.0, RT): 0.9 mg/mL
Peptide concentration after 180 min (DMF 31.8% w/w, pH 8.0, RT): 3.6 mg/mL
Peptide concentration after 5 min (DMF 31.8% w/w, pH 8.5, RT): 1.5 mg/mL
Peptide concentration after 180 min (DMF 31.8% w/w, pH 8.5, RT): >4.0 mg/mL
Peptide concentration after 5 min (DMF 31.8% w/w, pH 9.0, RT): 0.7 mg/mL
Peptide concentration after 180 min (DMF 31.8% w/w, pH 9.0, RT): >4.0 mg/mL
Peptide concentration after 5 min (DMF 31.8% w/w, pH 9.5, RT): 2.5 mg/mL
Peptide concentration after 180 min (DMF 31.8% w/w, pH 9.5, RT): >4.0 mg/mL
Peptide concentration after 5 min (DMF 31.8% w/w, pH 10.0, RT): 3.3 mg/mL
Peptide concentration after 180 min (DMF 31.8% w/w, pH 10.0, RT): >4.0 mg/mL
Peptide concentration after 5 min (DMF 31.8% w/w, pH 10.5, RT): 2.3 mg/mL
Peptide concentration after 180 min (DMF 31.8% w/w, pH 10.5, RT): >4.0 mg/mL
Peptide concentration after 5 min (DMF 31.8% w/w, pH 11.0, RT): 1.8 mg/mL
Peptide concentration after 180 min (DMF 31.8% w/w, pH 11.0, RT): 3.7 mg/mL
Peptide concentration after 5 min (DMF 38.2% w/w, pH 3.1, RT): 0.2 mg/mL
Peptide concentration after 180 min (DMF 38.2% w/w, pH 3.1, RT): 0.2 mg/mL
Peptide concentration after 24 h (DMF 38.2% w/w, pH 3.1, RT): 0.4 mg/mL
Peptide concentration after 5 min (DMF 38.2% w/w, pH 4.8, RT): 0.2 mg/mL
Peptide concentration after 180 min (DMF 38.2% w/w, pH 4.8, RT): 0.3 mg/mL
Peptide concentration after 24 h (DMF 38.2% w/w, pH 4.8, RT): 0.3 mg/mL
Peptide concentration after 5 min (DMF 38.2% w/w, pH 5.8, RT): 0.5 mg/mL
Peptide concentration after 180 min (DMF 38.2% w/w, pH 5.8, RT): 0.6 mg/mL
Peptide concentration after 24 h (DMF 38.2% w/w, pH 5.8, RT): 0.7 mg/mL
Peptide concentration after 5 min (DMF 38.2% w/w, pH 6.3, RT): 0.5 mg/mL
Peptide concentration after 180 min (DMF 38.2% w/w, pH 6.3, RT): 0.6 mg/mL
Peptide concentration after 24 h (DMF 38.2% w/w, pH 6.3, RT): 1.5 mg/mL
Peptide concentration after 5 min (DMF 38.2% w/w, pH 6.7, RT): 0.7 mg/mL
Peptide concentration after 180 min (DMF 38.2% w/w, pH 6.7, RT): 0.8 mg/mL
Peptide concentration after 24 h (DMF 38.2% w/w, pH 6.7, RT): 1.1 mg/mL
Peptide concentration after 5 min (DMF 38.2% w/w, pH 6.9, RT): 0.5 mg/mL
Peptide concentration after 180 min (DMF 38.2% w/w, pH 6.9, RT): 0.6 mg/mL
Peptide concentration after 24 h (DMF 38.2% w/w, pH 6.9, RT): 0.8 mg/mL
Peptide concentration after 5 min (DMF 38.2% w/w, pH 7.2, RT): 0.6 mg/mL
Peptide concentration after 180 min (DMF 38.2% w/w, pH 7.2, RT): 0.7 mg/mL
Peptide concentration after 24 h (DMF 38.2% w/w, pH 7.2, RT): 1.6 mg/mL
Peptide concentration after 5 min (DMF 38.2% w/w, pH 7.5, RT): 1.5 mg/mL
Peptide concentration after 5 min (DMF 38.2% w/w, pH 8.0, RT): 0.7 mg/mL
Peptide concentration after 180 min (DMF 38.2% w/w, pH 8.0, RT): >4.0 mg/mL
Peptide concentration after 5 min (DMF 38.2% w/w, pH 8.5, RT): 1.5 mg/mL
Peptide concentration after 180 min (DMF 38.2% w/w, pH 8.5, RT): >4.0 mg/mL
Peptide concentration after 5 min (DMF 38.2% w/w, pH 9.0, RT): 1.1 mg/mL
Peptide concentration after 180 min (DMF 38.2% w/w, pH 9.0, RT): >4.0 mg/mL
Peptide concentration after 5 min (DMF 38.2% w/w, pH 9.5, RT): >4.0 mg/mL
Peptide concentration after 180 min (DMF 38.2% w/w, pH 9.5, RT): >4.0 mg/mL
Peptide concentration after 5 min (DMF 38.2% w/w, pH 10.0, RT): 3.2 mg/mL
Peptide concentration after 180 min (DMF 38.2% w/w, pH 10.0, RT): >4.0 mg/mL
Peptide concentration after 5 min (DMF 38.2% w/w, pH 10.5, RT): 2.9 mg/mL
Peptide concentration after 180 min (DMF 38.2% w/w, pH 10.5, RT): >4.0 mg/mL
Peptide concentration after 5 min (DMF 38.2% w/w, pH 11.0, RT): 0.6 mg/mL
Peptide concentration after 180 min (DMF 38.2% w/w, pH 11.0, RT): >4.0 mg/mL
Peptide concentration after 5 min (DMF 44.5% w/w, pH 3.1, RT): 0.2 mg/mL
Peptide concentration after 180 min (DMF 44.5% w/w, pH 3.1, RT): 0.2 mg/mL
Peptide concentration after 24 h (DMF 44.5% w/w, pH 3.1, RT): 0.3 mg/mL
Peptide concentration after 5 min (DMF 44.5% w/w, pH 4.8, RT): 0.2 mg/mL
Peptide concentration after 180 min (DMF 44.5% w/w, pH 4.8, RT): 0.2 mg/mL
Peptide concentration after 24 h (DMF 44.5% w/w, pH 4.8, RT): 0.2 mg/mL
Peptide concentration after 5 min (DMF 44.5% w/w, pH 5.8, RT): 0.4 mg/mL
Peptide concentration after 180 min (DMF 44.5% w/w, pH 5.8, RT): 0.4 mg/mL
Peptide concentration after 24 h (DMF 44.5% w/w, pH 5.8, RT): 0.5 mg/mL
Peptide concentration after 5 min (DMF 44.5% w/w, pH 6.3, RT): 0.3 mg/mL
Peptide concentration after 180 min (DMF 44.5% w/w, pH 6.3, RT): 0.3 mg/mL
Peptide concentration after 24 h (DMF 44.5% w/w, pH 6.3, RT): 0.6 mg/mL
Peptide concentration after 5 min (DMF 44.5% w/w, pH 6.7, RT): 0.4 mg/mL
Peptide concentration after 180 min (DMF 44.5% w/w, pH 6.7, RT): 0.4 mg/mL
Peptide concentration after 24 h (DMF 44.5% w/w, pH 6.7, RT): 0.6 mg/mL
Peptide concentration after 5 min (DMF 44.5% w/w, pH 6.9, RT): 0.4 mg/mL
Peptide concentration after 180 min (DMF 44.5% w/w, pH 6.9, RT): 0.6 mg/mL
Peptide concentration after 24 h (DMF 44.5% w/w, pH 6.9, RT): 0.7 mg/mL
Peptide concentration after 5 min (DMF 44.5% w/w, pH 7.2, RT): 0.4 mg/mL
Peptide concentration after 180 min (DMF 44.5% w/w, pH 7.2, RT): 0.6 mg/mL
Peptide concentration after 24 h (DMF 44.5% w/w, pH 7.2, RT): 1.6 mg/mL
Peptide concentration after 5 min (DMF 44.5% w/w, pH 7.5, RT): 1.8 mg/mL
Peptide concentration after 180 min (DMF 44.5% w/w, pH 7.5, RT): >4.0 mg/mL
Peptide concentration after 5 min (DMF 44.5% w/w, pH 8.0, RT): 1.0 mg/mL
Peptide concentration after 180 min (DMF 44.5% w/w, pH 8.0, RT): >4.0 mg/mL
Peptide concentration after 5 min (DMF 44.5% w/w, pH 8.5, RT): 1.8 mg/mL
Peptide concentration after 180 min (DMF 44.5% w/w, pH 8.5, RT): >4.0 mg/mL
Peptide concentration after 5 min (DMF 44.5% w/w, pH 9.0, RT): 3.6 mg/mL
Peptide concentration after 180 min (DMF 44.5% w/w, pH 9.0, RT): 3.8 mg/mL
Peptide concentration after 5 min (DMF 44.5% w/w, pH 9.5, RT): 3.3 mg/mL
Peptide concentration after 180 min (DMF 44.5% w/w, pH 9.5, RT): >4.0 mg/mL
Peptide concentration after 5 min (DMF 44.5% w/w, pH 10.0, RT): >4.0 mg/mL
Peptide concentration after 180 min (DMF 44.5% w/w, pH 10.0, RT): >4.0 mg/mL
Peptide concentration after 5 min (DMF 44.5% w/w, pH 10.5, RT): 3.0 mg/mL
Peptide concentration after 180 min (DMF 44.5% w/w, pH 10.5, RT): >4.0 mg/mL
Peptide concentration after 5 min (DMF 44.5% w/w, pH 11.0, RT): 3.1 mg/mL
Peptide concentration after 180 min (DMF 44.5% w/w, pH 11.0, RT): 3.8 mg/mL
Peptide concentration after 5 min (DMF 50.9% w/w, pH 3.1, RT): 0.2 mg/mL
Peptide concentration after 180 min (DMF 50.9% w/w, pH 3.1, RT): 0.2 mg/mL
Peptide concentration after 24 h (DMF 50.9% w/w, pH 3.1, RT): 0.3 mg/mL
Peptide concentration after 5 min (DMF 50.9% w/w, pH 4.8, RT): 0.2 mg/mL
Peptide concentration after 180 min (DMF 50.9% w/w, pH 4.8, RT): 0.2 mg/mL
Peptide concentration after 24 h (DMF 50.9% w/w, pH 4.8, RT): 0.2 mg/mL
Structure (SMILES): CCCCCCCCCCCCCCCC(=O)N[C@@H](CCC(=O)NCCCC[C@H](NC(=O)[C@H](C)NC(=O)[C@H](C)NC(=O)[C@H](CCC(N)=O)NC(=O)CNC(=O)[C@H](CCC(=O)O)NC(=O)[C@H](CC(C)C)NC(=O)[C@H](Cc1ccc(O)cc1)NC(=O)[C@H](CO)NC(=O)[C@H](CO)NC(=O)[C@@H](NC(=O)[C@H](CC(=O)O)NC(=O)[C@H](CO)NC(=O)[C@@H](NC(=O)[C@H](Cc1ccccc1)NC(=O)[C@@H](NC(=O)CNC(=O)[C@H](CCC(=O)O)NC(=O)[C@H](C)NC(=O)[C@@H](N)Cc1cnc[nH]1)[C@@H](C)O)[C@@H](C)O)C(C)C)C(=O)N[C@@H](CCC(=O)O)C(=O)N[C@@H](Cc1ccccc1)C(=O)N[C@H](C(=O)N[C@@H](C)C(=O)N[C@@H](Cc1c[nH]c2ccccc12)C(=O)N[C@@H](CC(C)C)C(=O)N[C@H](C(=O)N[C@@H](CCCNC(=N)N)C(=O)NCC(=O)N[C@@H](CCCNC(=N)N)C(=O)NCC(=O)O)C(C)C)[C@@H](C)CC)C(=O)O [liraglutide, Arg34,Lys26-(N-epsilon-(gamma-L-glutamyl(N-alfa-hexadecanoyl)))-GLP-1(7-37)]

Source: patent US20210261642A1, “SOLUBILITY OF GLP-1 PEPTIDE” (Novo Nordisk A/S, priority 2017, published 2021)
